Test system: proteome of M. galloprovincialis plantigrade larvae
Experiment: Antifouling targets by label-free shotgun proteomics
Set-up: species or system Mytilus galloprovincialis

Row | SMILES | number of proteins with altered abundances (larvae exposed at 12.5 and 50 uM) [proteins] | number of proteins with significant change of abundances (larvae exposed at 6.25 and 25 uM) [proteins] | detection of two putative proximal thread matrix proteins (TMPs) (larvae exposed at 6.25 and 25 uM, versus control group)
1 | O=c1c2ccccc2oc2c(O)c(O)ccc12 [3,4dOHx, 3,4-dihydroxy-9H-xanthen-9-one] | 24 | – | –
2 | CC1(C)CCc2cc3c(=O)c4ccccc4oc3c(O)c2O1 [XP13, 12-hydroxy-2,2-dimethyl-3,4-dihydro-2H,6H-pyrano[3,2-b]xanthen-6-one] | – | 14 | become undetected
